For the experiment, the target named is Corynebacterium glutamicum mycothiol S-conjugate amidase (Mca), recombinant His6-Mca (Corynebacterium glutamicum) (UniProt Q8NRQ7). Nature of the experiment: SEC; analytical gel filtration by HPLC on HiLoad 26/600 Superdex 200 GL; 50 mM potassium phosphate buffer pH 7.2, 0.15 M NaCl; calibrated with protein standards of 6.5-158 kDa; both purified. (In general: Size exclusion chromatography separates by hydrodynamic size, large species first.)

From PMC4267739, “Functional Characterization of Corynebacterium glutamicum Mycothiol S-Conjugate Amidase” (PLoS ONE, 2014) come the findings set out here.

Results are given in words; binding and its absence hold for the method and conditions named. Sequences can lack the tags named with a protein.

B1: Corynebacterium glutamicum mycothiol S-conjugate amidase (Mca), recombinant His6-Mca (enzyme, UniProt Q8NRQ7 1-291)
chain: MSGLRLMAIHAHPDDESSKGAATMARYAAEGNQVMVVTCTGGERGDILNPAMDKPGILDNIFAVRQEEMAKAMEILGTEHRWLGYEDSGLPQGDPLPPLPEGCFALEDSDKVTQDLVKILREFRPHVIITYDENGGYPHPDHLKVHEVSMLAWEKSGDAAYAPELGAPWEPLKLYYTHGFIRQRMEMFHDLLIEQGKPSPYTPMLERWKANEADVMARVTTQVPCERFFDQRDDALRAHATQIDPAGAFFGTPVEVQRRLWPTEEFELAKTRVKTSIPEDDLFAGITPDAE
For B1, the binding result is listed as “no binding”.
